HELM strings list residues between dots; [ac] is acetyl, [am] amide, other brackets name non-standard units.
Assay: general procedure: peptide synthesis; 2-chlorotrityl chloride resin loaded with Fmoc-1,2-ethylenediamine·HCl (0.7 mmol/g); COMU/OxymaPure/DIEA; PyBOP/HOAt/DIEA for 2-quinoxalinecarboxylic acid in solutio
Conditions: whole synthesis; for isolated yield: overall

Substance	isolated yield [%]	other results
PEPTIDE1{[Qxn].S.[Abu].V.T.[dP].G.T.V.[Abu].[EDA-Qxn]}$$$$V2.0	0.2	
PEPTIDE1{[Qxn].[Dap(CF)].[Abu].V.V.[dP].G.V.V.[Abu].[EDA-Qxn]}$$$$V2.0	5.3	
PEPTIDE1{[Qxn].S.[Abu].V.V.[dP].G.V.V.[Abu].[EDA-Qxn]}$$$$V2.0	12.1	
PEPTIDE1{[Qxn].S.[Abu].V.I.[dP].G.I.V.[Abu].[EDA-Qxn]}$$$$V2.0	7	
PEPTIDE1{[Qxn].S.[NMeAbu].[NMeVal].V.[dP].G.V.[NMeVal].[NMeAbu].[EDA-Qxn]}$$$$V2.0		crude yield: 99.5% yield; crude HPLC purity (analytical HPLC): 72% purity; isolated yield (scale 0.1 mmol): 15% overall yield; isolated mass (scale 0.1 mmol): 19.6 mg
PEPTIDE1{[Qxn].[dS].[NMeAbu].[NMeVal].V.[dP].G.V.[NMeVal].[NMeAbu].[EDA-Qxn]}$$$$V2.0	0.5	
PEPTIDE1{[Qxn].[dS].[Abu].V.V.[dP].G.V.V.[Abu].[EDA-Qxn]}$$$$V2.0	1.5	

Source: PMC5666514 (Chemical Science, 2015)
